Results are given in words; binding and its absence hold for the method and conditions named. Some binding calls cover weakened binding; strength is not graded here. For part of these data: Where a sequence is shown, tags or fusion partners need not be part of it. Each block holds one binder with its values, some of them ahead of it.
Legend:
[1] = target: T1, fusion of WFIKKN2 and Fc (secreted protein microarray) (UniProt Q8TEU8); experiment: peptide or protein array
T1 sequence: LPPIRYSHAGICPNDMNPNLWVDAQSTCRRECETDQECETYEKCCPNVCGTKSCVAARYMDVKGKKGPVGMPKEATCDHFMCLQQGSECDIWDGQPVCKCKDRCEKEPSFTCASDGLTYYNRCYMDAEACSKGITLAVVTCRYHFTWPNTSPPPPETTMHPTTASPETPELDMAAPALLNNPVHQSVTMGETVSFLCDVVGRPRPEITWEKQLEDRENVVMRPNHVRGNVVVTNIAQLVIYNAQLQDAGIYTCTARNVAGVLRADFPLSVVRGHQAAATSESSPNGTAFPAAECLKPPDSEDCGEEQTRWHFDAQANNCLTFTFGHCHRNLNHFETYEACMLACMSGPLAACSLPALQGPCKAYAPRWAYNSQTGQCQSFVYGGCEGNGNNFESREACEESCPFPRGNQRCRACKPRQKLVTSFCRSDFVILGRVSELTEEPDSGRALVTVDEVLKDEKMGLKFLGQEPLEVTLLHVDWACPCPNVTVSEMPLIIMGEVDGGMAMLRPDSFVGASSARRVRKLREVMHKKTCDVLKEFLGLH

Amino acid sequences for entries named in this document (tags omitted). Residues count along the entry.
UniProt P70211, residues 26-1447: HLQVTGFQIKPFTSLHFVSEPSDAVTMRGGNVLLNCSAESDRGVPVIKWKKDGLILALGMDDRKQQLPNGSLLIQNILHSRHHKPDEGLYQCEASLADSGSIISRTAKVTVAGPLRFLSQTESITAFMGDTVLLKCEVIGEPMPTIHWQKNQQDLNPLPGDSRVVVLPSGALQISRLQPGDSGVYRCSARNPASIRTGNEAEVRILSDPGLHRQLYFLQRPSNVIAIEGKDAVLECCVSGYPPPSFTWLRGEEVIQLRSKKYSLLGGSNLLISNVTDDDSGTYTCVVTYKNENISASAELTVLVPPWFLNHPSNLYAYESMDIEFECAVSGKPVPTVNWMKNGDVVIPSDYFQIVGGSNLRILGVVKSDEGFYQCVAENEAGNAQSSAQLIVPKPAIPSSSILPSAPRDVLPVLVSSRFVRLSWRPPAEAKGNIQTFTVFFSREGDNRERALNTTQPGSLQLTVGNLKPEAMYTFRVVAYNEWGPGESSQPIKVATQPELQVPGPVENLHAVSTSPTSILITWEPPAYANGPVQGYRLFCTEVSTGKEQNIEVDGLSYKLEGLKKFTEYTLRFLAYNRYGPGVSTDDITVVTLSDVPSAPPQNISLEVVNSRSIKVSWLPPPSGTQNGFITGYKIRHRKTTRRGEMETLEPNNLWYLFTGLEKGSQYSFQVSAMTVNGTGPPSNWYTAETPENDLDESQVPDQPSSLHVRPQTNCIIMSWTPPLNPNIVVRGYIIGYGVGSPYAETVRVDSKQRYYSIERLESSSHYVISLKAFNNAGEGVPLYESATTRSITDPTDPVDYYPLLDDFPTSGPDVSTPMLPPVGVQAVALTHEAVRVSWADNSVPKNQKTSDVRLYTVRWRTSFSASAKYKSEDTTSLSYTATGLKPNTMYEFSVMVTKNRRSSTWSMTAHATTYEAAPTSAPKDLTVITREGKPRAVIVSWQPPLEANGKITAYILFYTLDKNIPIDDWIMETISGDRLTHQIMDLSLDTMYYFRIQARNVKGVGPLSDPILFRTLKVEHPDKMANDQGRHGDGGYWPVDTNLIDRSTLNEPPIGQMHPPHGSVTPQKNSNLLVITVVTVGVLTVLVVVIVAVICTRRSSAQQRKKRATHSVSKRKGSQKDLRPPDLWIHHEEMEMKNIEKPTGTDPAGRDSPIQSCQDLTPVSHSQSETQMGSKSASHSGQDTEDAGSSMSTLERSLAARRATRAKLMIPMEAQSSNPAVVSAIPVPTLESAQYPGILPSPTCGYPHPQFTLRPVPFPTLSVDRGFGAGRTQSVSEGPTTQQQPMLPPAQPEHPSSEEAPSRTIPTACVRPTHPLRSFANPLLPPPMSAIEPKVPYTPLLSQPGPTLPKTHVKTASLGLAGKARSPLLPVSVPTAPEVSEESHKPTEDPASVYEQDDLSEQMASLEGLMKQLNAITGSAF
UniProt P97798, residues 37-1492: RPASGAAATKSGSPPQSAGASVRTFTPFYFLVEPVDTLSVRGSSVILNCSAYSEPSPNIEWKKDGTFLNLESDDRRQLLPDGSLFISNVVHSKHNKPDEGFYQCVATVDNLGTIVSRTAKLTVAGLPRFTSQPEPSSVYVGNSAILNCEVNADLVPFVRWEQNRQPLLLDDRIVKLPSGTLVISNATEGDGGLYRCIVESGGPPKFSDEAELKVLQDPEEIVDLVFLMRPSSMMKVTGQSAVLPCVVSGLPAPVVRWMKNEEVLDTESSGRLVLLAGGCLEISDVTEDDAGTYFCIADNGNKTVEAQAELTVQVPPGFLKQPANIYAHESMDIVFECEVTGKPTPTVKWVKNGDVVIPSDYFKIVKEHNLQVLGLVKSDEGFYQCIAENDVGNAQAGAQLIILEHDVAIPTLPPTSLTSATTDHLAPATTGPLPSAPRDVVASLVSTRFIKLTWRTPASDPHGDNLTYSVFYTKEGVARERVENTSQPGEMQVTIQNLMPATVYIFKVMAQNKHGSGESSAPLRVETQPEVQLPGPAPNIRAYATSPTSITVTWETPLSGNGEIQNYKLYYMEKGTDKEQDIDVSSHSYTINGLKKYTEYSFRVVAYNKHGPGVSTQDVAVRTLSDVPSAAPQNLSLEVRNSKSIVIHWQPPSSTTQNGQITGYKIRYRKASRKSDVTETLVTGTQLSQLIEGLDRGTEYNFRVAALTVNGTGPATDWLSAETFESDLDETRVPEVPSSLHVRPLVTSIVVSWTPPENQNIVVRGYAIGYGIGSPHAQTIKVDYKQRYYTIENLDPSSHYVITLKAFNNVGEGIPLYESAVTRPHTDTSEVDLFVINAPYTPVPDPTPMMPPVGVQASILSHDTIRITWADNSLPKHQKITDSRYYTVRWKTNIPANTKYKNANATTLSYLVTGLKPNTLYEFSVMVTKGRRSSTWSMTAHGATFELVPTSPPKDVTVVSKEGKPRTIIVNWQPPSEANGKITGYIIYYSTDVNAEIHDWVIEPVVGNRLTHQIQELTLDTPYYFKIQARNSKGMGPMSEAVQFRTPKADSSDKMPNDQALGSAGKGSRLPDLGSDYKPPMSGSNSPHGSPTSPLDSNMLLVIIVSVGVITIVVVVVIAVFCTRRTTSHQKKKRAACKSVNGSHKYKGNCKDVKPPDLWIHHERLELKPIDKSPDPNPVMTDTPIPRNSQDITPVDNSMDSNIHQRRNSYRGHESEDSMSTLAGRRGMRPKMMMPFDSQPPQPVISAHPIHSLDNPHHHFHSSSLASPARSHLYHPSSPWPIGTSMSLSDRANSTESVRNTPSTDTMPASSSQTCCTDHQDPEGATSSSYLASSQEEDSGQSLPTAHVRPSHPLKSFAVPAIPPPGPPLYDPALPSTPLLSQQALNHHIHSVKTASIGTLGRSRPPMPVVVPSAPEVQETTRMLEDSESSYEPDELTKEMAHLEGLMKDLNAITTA

[2] = target: T2, mWFIKKN2 (biotinylated, SPR ligand) (mouse) (UniProt Q7TQN3); experiment: SPR
T2 sequence (chain, N-terminally biotinylated using Sulfo-NHS-SS-Biotin): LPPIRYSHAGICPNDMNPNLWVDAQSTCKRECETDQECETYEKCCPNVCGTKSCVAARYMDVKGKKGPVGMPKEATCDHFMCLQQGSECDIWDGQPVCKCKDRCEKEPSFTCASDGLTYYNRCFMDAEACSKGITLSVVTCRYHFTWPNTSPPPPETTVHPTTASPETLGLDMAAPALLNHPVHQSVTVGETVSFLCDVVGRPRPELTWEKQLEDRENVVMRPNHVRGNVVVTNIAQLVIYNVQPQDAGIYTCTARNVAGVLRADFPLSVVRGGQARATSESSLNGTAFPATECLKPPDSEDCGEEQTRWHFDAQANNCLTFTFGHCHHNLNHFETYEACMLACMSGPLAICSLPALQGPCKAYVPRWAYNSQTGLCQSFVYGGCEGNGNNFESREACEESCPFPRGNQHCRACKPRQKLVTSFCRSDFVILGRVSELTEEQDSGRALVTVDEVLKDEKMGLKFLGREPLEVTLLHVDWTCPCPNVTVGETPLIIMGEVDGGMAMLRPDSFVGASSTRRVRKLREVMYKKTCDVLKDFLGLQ

[3] = target: T3, Nope expressed on COS-7 cells (UniProt Q9EQS9); experiment: AP fusion protein binding assay on cells
T3 sequence: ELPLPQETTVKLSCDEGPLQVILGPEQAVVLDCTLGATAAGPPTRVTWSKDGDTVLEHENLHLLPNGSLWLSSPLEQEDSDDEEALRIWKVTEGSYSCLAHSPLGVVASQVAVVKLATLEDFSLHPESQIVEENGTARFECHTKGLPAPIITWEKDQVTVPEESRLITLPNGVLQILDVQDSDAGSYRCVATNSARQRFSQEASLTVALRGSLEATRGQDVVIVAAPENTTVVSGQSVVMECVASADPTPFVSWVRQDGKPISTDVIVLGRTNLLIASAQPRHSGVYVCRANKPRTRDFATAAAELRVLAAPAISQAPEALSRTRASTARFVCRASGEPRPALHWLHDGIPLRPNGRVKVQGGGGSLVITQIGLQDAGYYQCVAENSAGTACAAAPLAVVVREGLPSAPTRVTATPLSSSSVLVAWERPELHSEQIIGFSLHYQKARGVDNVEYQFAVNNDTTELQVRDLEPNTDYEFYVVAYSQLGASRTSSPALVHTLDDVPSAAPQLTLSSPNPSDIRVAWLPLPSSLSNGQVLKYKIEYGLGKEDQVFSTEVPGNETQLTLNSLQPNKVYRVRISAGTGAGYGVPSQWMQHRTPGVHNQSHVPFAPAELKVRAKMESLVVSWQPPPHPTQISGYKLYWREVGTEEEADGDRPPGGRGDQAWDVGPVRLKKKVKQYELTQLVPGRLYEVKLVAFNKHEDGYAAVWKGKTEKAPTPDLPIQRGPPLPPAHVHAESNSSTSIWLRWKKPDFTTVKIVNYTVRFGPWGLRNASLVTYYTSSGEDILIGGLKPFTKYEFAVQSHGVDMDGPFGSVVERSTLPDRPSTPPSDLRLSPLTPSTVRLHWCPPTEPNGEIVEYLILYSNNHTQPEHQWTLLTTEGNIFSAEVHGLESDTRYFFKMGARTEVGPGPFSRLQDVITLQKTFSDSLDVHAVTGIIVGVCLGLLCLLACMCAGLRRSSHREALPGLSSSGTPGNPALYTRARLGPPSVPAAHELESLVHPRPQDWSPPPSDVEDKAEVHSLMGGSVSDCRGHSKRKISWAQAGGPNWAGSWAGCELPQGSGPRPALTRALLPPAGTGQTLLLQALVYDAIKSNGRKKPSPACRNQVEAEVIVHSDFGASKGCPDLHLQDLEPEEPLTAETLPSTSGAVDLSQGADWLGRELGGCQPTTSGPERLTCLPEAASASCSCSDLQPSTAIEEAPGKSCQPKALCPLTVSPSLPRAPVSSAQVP

[4] = target: DCC expressed on COS-7 cells (UniProt P70211); experiment: AP fusion protein binding assay on cells
[5] = target: Neogenin (Neo1) expressed on COS-7 cells (UniProt P97798); experiment: AP fusion protein binding assay on cells
[6] = target: T4, Punc expressed on COS-7 cells (UniProt Q8BQC3); experiment: AP fusion protein binding assay on cells
T4 sequence: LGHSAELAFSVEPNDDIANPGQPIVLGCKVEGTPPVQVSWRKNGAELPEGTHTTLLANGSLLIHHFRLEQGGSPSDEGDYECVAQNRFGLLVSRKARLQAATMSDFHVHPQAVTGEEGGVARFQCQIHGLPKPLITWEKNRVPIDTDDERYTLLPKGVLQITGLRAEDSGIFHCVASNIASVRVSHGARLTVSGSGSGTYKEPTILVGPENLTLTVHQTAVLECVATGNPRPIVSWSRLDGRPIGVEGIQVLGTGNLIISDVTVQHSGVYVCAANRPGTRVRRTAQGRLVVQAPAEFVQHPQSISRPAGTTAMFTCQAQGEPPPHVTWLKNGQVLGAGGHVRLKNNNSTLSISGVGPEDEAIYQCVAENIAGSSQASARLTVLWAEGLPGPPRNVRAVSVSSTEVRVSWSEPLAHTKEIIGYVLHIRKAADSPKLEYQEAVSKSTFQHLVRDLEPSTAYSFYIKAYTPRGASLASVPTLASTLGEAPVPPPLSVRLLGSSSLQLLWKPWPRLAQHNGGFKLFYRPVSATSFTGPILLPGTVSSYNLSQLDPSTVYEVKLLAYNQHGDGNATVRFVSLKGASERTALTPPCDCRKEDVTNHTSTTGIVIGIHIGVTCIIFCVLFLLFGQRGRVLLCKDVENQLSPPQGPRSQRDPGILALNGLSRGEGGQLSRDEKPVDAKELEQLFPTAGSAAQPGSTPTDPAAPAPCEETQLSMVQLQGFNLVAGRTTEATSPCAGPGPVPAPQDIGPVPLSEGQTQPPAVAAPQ

- binding [1]: binds
B1: fusion of mNope ECD (G22-H953) to human Fc (Fc fusion, UniProt Q9EQS9-1 22-953)
chain: GELPLPQETTVKLSCDEGPLQVILGPEQAVVLDCTLGATAAGPPTRVTWSKDGDTVLEHENLHLLPNGSLWLSSPLEQEDSDDEEALRIWKVTEGSYSCLAHSPLGVVASQVAVVKLATLEDFSLHPESQIVEENGTARFECHTKGLPAPIITWEKDQVTVPEESRLITLPNGVLQILDVQDSDAGSYRCVATNSARQRFSQEASLTVALRGSLEATRGQDVVIVAAPENTTVVSGQSVVMECVASADPTPFVSWVRQDGKPISTDVIVLGRTNLLIASAQPRHSGVYVCRANKPRTRDFATAAAELRVLAAPAISQAPEALSRTRASTARFVCRASGEPRPALHWLHDGIPLRPNGRVKVQGGGGSLVITQIGLQDAGYYQCVAENSAGTACAAAPLAVVVREGLPSAPTRVTATPLSSSSVLVAWERPELHSEQIIGFSLHYQKARGVDNVEYQFAVNNDTTELQVRDLEPNTDYEFYVVAYSQLGASRTSSPALVHTLDDVPSAAPQLTLSSPNPSDIRVAWLPLPSSLSNGQVLKYKIEYGLGKEDQVFSTEVPGNETQLTLNSLQPNKVYRVRISAGTGAGYGVPSQWMQHRTPGVHNQSHVPFAPAELKVRAKMESLVVSWQPPPHPTQISGYKLYWREVGTEEEADGDRPPGGRGDQAWDVGPVRLKKKVKQYELTQLVPGRLYEVKLVAFNKHEDGYAAVWKGKTEKAPTPDLPIQRGPPLPPAHVHAESNSSTSIWLRWKKPDFTTVKIVNYTVRFGPWGLRNASLVTYYTSSGEDILIGGLKPFTKYEFAVQSHGVDMDGPFGSVVERSTLPDRPSTPPSDLRLSPLTPSTVRLHWCPPTEPNGEIVEYLILYSNNHTQPEHQWTLLTTEGNIFSAEVHGLESDTRYFFKMGARTEVGPGPFSRLQDVITLQKTFSDSLDVH

- binding [2]: binds
B2: mNope ECD (SPR analyte) (domain or fragment, UniProt Q9EQS9-1 23-956)
chain: ELPLPQETTVKLSCDEGPLQVILGPEQAVVLDCTLGATAAGPPTRVTWSKDGDTVLEHENLHLLPNGSLWLSSPLEQEDSDDEEALRIWKVTEGSYSCLAHSPLGVVASQVAVVKLATLEDFSLHPESQIVEENGTARFECHTKGLPAPIITWEKDQVTVPEESRLITLPNGVLQILDVQDSDAGSYRCVATNSARQRFSQEASLTVALRGSLEATRGQDVVIVAAPENTTVVSGQSVVMECVASADPTPFVSWVRQDGKPISTDVIVLGRTNLLIASAQPRHSGVYVCRANKPRTRDFATAAAELRVLAAPAISQAPEALSRTRASTARFVCRASGEPRPALHWLHDGIPLRPNGRVKVQGGGGSLVITQIGLQDAGYYQCVAENSAGTACAAAPLAVVVREGLPSAPTRVTATPLSSSSVLVAWERPELHSEQIIGFSLHYQKARGVDNVEYQFAVNNDTTELQVRDLEPNTDYEFYVVAYSQLGASRTSSPALVHTLDDVPSAAPQLTLSSPNPSDIRVAWLPLPSSLSNGQVLKYKIEYGLGKEDQVFSTEVPGNETQLTLNSLQPNKVYRVRISAGTGAGYGVPSQWMQHRTPGVHNQSHVPFAPAELKVRAKMESLVVSWQPPPHPTQISGYKLYWREVGTEEEADGDRPPGGRGDQAWDVGPVRLKKKVKQYELTQLVPGRLYEVKLVAFNKHEDGYAAVWKGKTEKAPTPDLPIQRGPPLPPAHVHAESNSSTSIWLRWKKPDFTTVKIVNYTVRFGPWGLRNASLVTYYTSSGEDILIGGLKPFTKYEFAVQSHGVDMDGPFGSVVERSTLPDRPSTPPSDLRLSPLTPSTVRLHWCPPTEPNGEIVEYLILYSNNHTQPEHQWTLLTTEGNIFSAEVHGLESDTRYFFKMGARTEVGPGPFSRLQDVITLQKTFSDSLDVHAVT

- binding [3]: binds
- binding [4]: no binding
- binding [5]: no binding
- binding [6]: binds
B3: WFIKKN2-AP (ligand, UniProt Q7TQN3 30-571)
chain: T2 sequence (chain, N-terminally biotinylated using Sulfo-NHS-SS-Biotin)
